Test [1] deals with T1, Flag-Hes-1WT (rat) (UniProt Q04666).
T1 sequence: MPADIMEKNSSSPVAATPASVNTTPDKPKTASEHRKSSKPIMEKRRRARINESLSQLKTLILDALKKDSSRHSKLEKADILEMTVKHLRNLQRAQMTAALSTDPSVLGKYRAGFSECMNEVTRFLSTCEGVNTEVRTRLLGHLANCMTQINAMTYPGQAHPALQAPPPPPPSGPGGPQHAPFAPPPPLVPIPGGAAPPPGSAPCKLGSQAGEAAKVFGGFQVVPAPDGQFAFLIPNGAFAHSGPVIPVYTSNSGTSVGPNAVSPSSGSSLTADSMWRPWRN
Put plainly: co-IP; HEK293T co-transfected with Flag-Hes-1 and EGFP-PIAS1 constructs, lysed 48 h later; anti-Flag M2 affinity gel, 4°C 2 h, washed with PBS; blot for PIAS1; some groups with 0.2 mM H2O2 for 4 h, with CIP (20 U/ml), with Myc-SUMO-1 co-transfected.

Another test has as its target T2, Flag-Hes-1 3KR (rat) (UniProt Q04666).
T2 sequence: T1 sequence with K8R, K27R, K39R
Briefly: co-IP; HEK293T co-transfected with Flag-Hes-1WT or 3KR, EGFP-PIAS1 and Myc-SUMO-1, with or without H2O2; lysed with RIPA buffer containing 20 mM NEM; anti-Flag IP, blot for PIAS1.

For test [2], the target named is T1, Flag-Hes-1WT (rat). Described as above.
Another test concerns the target EGFP-PIAS1WT (rat). Briefly: co-IP; HEK293T co-transfected with Flag-Hes-1WT and EGFP-PIAS1WT; reciprocal precipitation with EGFP antibody, 4°C 2 h, washed with PBS.

Numbering of substitutions follows the chain as printed. These are yes or no findings as the source states them, for the method shown. In cells and extracts the contact can be indirect. A result given as binding can be weak or reduced; the word gives no strength. Sequences can lack the tags named with a protein.

Take EGFP-PIAS1S90A (rat): the binding entry with Flag-Hes-1WT (rat) [1] was “binds”.
Take EGFP-PIAS1WT (rat): the binding result with Flag-Hes-1 3KR (rat), with Flag-Hes-1WT (rat) [2] and with Flag-Hes-1WT (rat) [1] was “binds” throughout.

B1: Flag-Hes-1WT (protein, UniProt Q04666 1-281)
chain: T1 sequence
As for B1, in the test with EGFP-PIAS1WT (rat), the binding entry is “binds”.

The record behind these values is PMC4071220.
